# Results from one PubChem assay

From PubChem BioAssay record AID504749 (NCATS, 2011).

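Malaria parasite (P. falciparum) lines kept in red blood cells; parasite DNA is measured by SYBR Green fluorescence after lysis, 72 h after compound addition.
Each compound was titrated across a series from about 0.000037 to 29 µM.
The number is the fitted AC50, the concentration giving a half-maximal change in signal; a lower value means higher potency, whether the curve shows a decrease or an increase.
Calls follow the curve class and fit quality: every row here is inconclusive, covering signal-raising curves and weak, poorly fitted, partial or highest-dose-only inhibition curves.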

Values are in µM.
All entries here are filed as inconclusive.
These entries are mostly ones the record files as inconclusive; other results of the assay are not listed here.
Potencies fitted to partial, single-point or poorly fitting curves are rough.

| # | structure | tested on / at | Potency (µM) | curve as filed |
|---|---|---|---|---|
| 1 | `COC1CC(=C(c2cccs2)c2cccs2)C[N+](C)(C)C1` (centres undefined) | PC15 | 10 | inhibitor, single point |
| 2 | `COC1CC(=C(c2cccs2)c2cccs2)C[N+](C)(C)C1` (centres undefined) | JCK | 8.912 | inhibitor, single point |
| 3 | `COC1CC(=C(c2cccs2)c2cccs2)C[N+](C)(C)C1` (centres undefined) | C2A | 10 | inhibitor, single point |
| 4 | `COC1CC(=C(c2cccs2)c2cccs2)C[N+](C)(C)C1` (centres undefined) | PC26 | 15.1 | inhibitor, single point |
| 5 | `COC1CC(=C(c2cccs2)c2cccs2)C[N+](C)(C)C1` (centres undefined) | FAB9 | 12.59 | inhibitor, partial curve |
| 6 | `COC1CC(=C(c2cccs2)c2cccs2)C[N+](C)(C)C1` (centres undefined) | CP297 | 15.1 | inhibitor, partial curve |
| 7 | `COC1CC(=C(c2cccs2)c2cccs2)C[N+](C)(C)C1` (centres undefined) | CP194 | 13.46 | inhibitor, single point |
| 8 | `COC1CC(=C(c2cccs2)c2cccs2)C[N+](C)(C)C1` (centres undefined) | CP268 | 4.776 | inhibitor, partial curve |
| 9 | `COC1CC(=C(c2cccs2)c2cccs2)C[N+](C)(C)C1` (centres undefined) | ATS95 | 17.78 | inhibitor, single point |
| 10 | `COC1CC(=C(c2cccs2)c2cccs2)C[N+](C)(C)C1` (centres undefined) | CP211 | 12 | inhibitor, partial curve, poor fit |
| 11 | `COC1CC(=C(c2cccs2)c2cccs2)C[N+](C)(C)C1` (centres undefined) | CP262 | 19.01 | inhibitor, single point |
| 12 | `COC1CC(=C(c2cccs2)c2cccs2)C[N+](C)(C)C1` (centres undefined) | DIV30 | 9.528 | inhibitor, partial curve, poor fit |
| 13 | `COC1CC(=C(c2cccs2)c2cccs2)C[N+](C)(C)C1` (centres undefined) | DIV14 | 4.256 | inhibitor, partial curve |
| 14 | `COC1CC(=C(c2cccs2)c2cccs2)C[N+](C)(C)C1` (centres undefined) | CP192 | 10.69 | inhibitor, partial curve |
| 15 | `COC1CC(=C(c2cccs2)c2cccs2)C[N+](C)(C)C1` (centres undefined) | DIV17 | 4.776 | inhibitor, partial curve |
| 16 | `Cc1cc(O)c2c(c1)OC1(C)CCC3C(C)(C)CCCC34COC2C14` (centres undefined) | DFO2036 | 17.78 | inhibitor, single point |
| 17 | `Cc1cc(O)c2c(c1)OC1(C)CCC3C(C)(C)CCCC34COC2C14` (centres undefined) | SC27B | 12.59 | inhibitor, single point |
| 18 | `Cc1cc(O)c2c(c1)OC1(C)CCC3C(C)(C)CCCC34COC2C14` (centres undefined) | CP252 | 17.78 | inhibitor, single point |
| 19 | `Cc1cc(O)c2c(c1)OC1(C)CCC3C(C)(C)CCCC34COC2C14` (centres undefined) | ATS189 | 14.13 | inhibitor, single point |
| 20 | `Cc1cc(O)c2c(c1)OC1(C)CCC3C(C)(C)CCCC34COC2C14` (centres undefined) | CP191 | 10 | inhibitor, single point |
| 21 | `Cc1cc(O)c2c(c1)OC1(C)CCC3C(C)(C)CCCC34COC2C14` (centres undefined) | PC49 | 14.13 | inhibitor, single point |
| 22 | `Cc1cc(O)c2c(c1)OC1(C)CCC3C(C)(C)CCCC34COC2C14` (centres undefined) | CP237 | 17.78 | inhibitor, single point |
| 23 | `Cc1cc(O)c2c(c1)OC1(C)CCC3C(C)(C)CCCC34COC2C14` (centres undefined) | CP247 | 10 | inhibitor, single point |
| 24 | `Cc1cc(O)c2c(c1)OC1(C)CCC3C(C)(C)CCCC34COC2C14` (centres undefined) | CP215 | 19.01 | inhibitor, single point |
| 25 | `Cc1cc(O)c2c(c1)OC1(C)CCC3C(C)(C)CCCC34COC2C14` (centres undefined) | DIV30 | 15.1 | inhibitor, single point |
| 26 | `Cc1cc(O)c2c(c1)OC1(C)CCC3C(C)(C)CCCC34COC2C14` (centres undefined) | CP194 | 16.94 | inhibitor, single point |
| 27 | `Cc1cc(O)c2c(c1)OC1(C)CCC3C(C)(C)CCCC34COC2C14` (centres undefined) | ECU | 10 | inhibitor, single point |
| 28 | `Cc1cc(O)c2c(c1)OC1(C)CCC3C(C)(C)CCCC34COC2C14` (centres undefined) | TAB165 | 10 | inhibitor, single point |
| 29 | `Cc1cc(O)c2c(c1)OC1(C)CCC3C(C)(C)CCCC34COC2C14` (centres undefined) | CP262 | 10.69 | inhibitor, partial curve, poor fit |
| 30 | `Cc1cc(O)c2c(c1)OC1(C)CCC3C(C)(C)CCCC34COC2C14` (centres undefined) | CP203 | 19.01 | inhibitor, single point |
| 31 | `Cc1cc(O)c2c(c1)OC1(C)CCC3C(C)(C)CCCC34COC2C14` (centres undefined) | P93_24 | 10 | inhibitor, single point |
| 32 | `Cc1cc(O)c2c(c1)OC1(C)CCC3C(C)(C)CCCC34COC2C14` (centres undefined) | P94_40 | 10 | inhibitor, single point |
| 33 | `Cc1cc(O)c2c(c1)OC1(C)CCC3C(C)(C)CCCC34COC2C14` (centres undefined) | PAD | 17.78 | inhibitor, single point |
| 34 | `Cc1cc(O)c2c(c1)OC1(C)CCC3C(C)(C)CCCC34COC2C14` (centres undefined) | CP297 | 16.94 | inhibitor, partial curve, poor fit |
| 35 | `Cc1cc(O)c2c(c1)OC1(C)CCC3C(C)(C)CCCC34COC2C14` (centres undefined) | CP305 | 0.151 | inhibitor, partial curve, poor fit |
| 36 | `Cc1cc(O)c2c(c1)OC1(C)CCC3C(C)(C)CCCC34COC2C14` (centres undefined) | CP217 | 11.22 | inhibitor, single point |
| 37 | `Cc1cc(O)c2c(c1)OC1(C)CCC3C(C)(C)CCCC34COC2C14` (centres undefined) | AS120 | 14.13 | inhibitor, single point |
| 38 | `Cc1cc(O)c2c(c1)OC1(C)CCC3C(C)(C)CCCC34COC2C14` (centres undefined) | 3D7 | 11.22 | inhibitor, single point |
| 39 | `Cc1cc(O)c2c(c1)OC1(C)CCC3C(C)(C)CCCC34COC2C14` (centres undefined) | CP265 | 15.85 | inhibitor, single point |
| 40 | `Cc1cc(O)c2c(c1)OC1(C)CCC3C(C)(C)CCCC34COC2C14` (centres undefined) | ATS95 | 17.78 | inhibitor, single point |
| 41 | `Cc1cc(O)c2c(c1)OC1(C)CCC3C(C)(C)CCCC34COC2C14` (centres undefined) | CP335 | 12 | inhibitor, single point |
| 42 | `Cc1cc(O)c2c(c1)OC1(C)CCC3C(C)(C)CCCC34COC2C14` (centres undefined) | CP211 | 16.94 | inhibitor, partial curve, poor fit |
| 43 | `Cc1cc(O)c2c(c1)OC1(C)CCC3C(C)(C)CCCC34COC2C14` (centres undefined) | CP268 | 12 | inhibitor, single point |
| 44 | `Cc1cc(O)c2c(c1)OC1(C)CCC3C(C)(C)CCCC34COC2C14` (centres undefined) | parasite line B | 10 | inhibitor, single point |
| 45 | `Cc1cc(O)c2c(c1)OC1(C)CCC3C(C)(C)CCCC34COC2C14` (centres undefined) | CP269 | 19.01 | inhibitor, single point |
| 46 | `Cc1cc(O)c2c(c1)OC1(C)CCC3C(C)(C)CCCC34COC2C14` (centres undefined) | PC26 | 12 | inhibitor, partial curve |
| 47 | `Cc1cc(O)c2c(c1)OC1(C)CCC3C(C)(C)CCCC34COC2C14` (centres undefined) | HB3 | 11.22 | inhibitor, partial curve, poor fit |
| 48 | `O.O.O.O.O.O.O.O=S(=O)([O-])[O-].[Co+2]` | PC26 | 21.33 | inhibitor, single point |
| 49 | `O.O.O.O.O.O.O.O=S(=O)([O-])[O-].[Co+2]` | DIV17 | 10.69 | inhibitor, single point |
| 50 | `O.O.O.O.O.O.O.O=S(=O)([O-])[O-].[Co+2]` | CP297 | 12 | inhibitor, partial curve |
| 51 | `O.O.O.O.O.O.O.O=S(=O)([O-])[O-].[Co+2]` | CP215 | 6.746 | inhibitor, partial curve |
| 52 | `O.O.O.O.O.O.O.O=S(=O)([O-])[O-].[Co+2]` | CP192 | 13.46 | inhibitor, single point |
| 53 | `O.O.O.O.O.O.O.O=S(=O)([O-])[O-].[Co+2]` | 3D7 | 14.13 | inhibitor, single point |
| 54 | `O.O.O.O.O.O.O.O=S(=O)([O-])[O-].[Co+2]` | DIV14 | 16.94 | inhibitor, single point |
| 55 | `O.O.O.O.O.O.O.O=S(=O)([O-])[O-].[Co+2]` | CP266 | 15.1 | inhibitor, single point |
| 56 | `O.O.O.O.O.O.O.O=S(=O)([O-])[O-].[Co+2]` | CP315 | 15.1 | inhibitor, single point |

For reference, 5 entries once more:

O.O.O.O.O.O.O.O=S(=O)([O-])[O-].[Co+2] [3D7] gave Potency 14.13 µM (inhibitor, single point).
Cc1cc(O)c2c(c1)OC1(C)CCC3C(C)(C)CCCC34COC2C14 (centres undefined) [CP265] gave Potency 15.85 µM (inhibitor, single point).
Cc1cc(O)c2c(c1)OC1(C)CCC3C(C)(C)CCCC34COC2C14 (centres undefined) [P94_40] gave Potency 10 µM (inhibitor, single point).
Cc1cc(O)c2c(c1)OC1(C)CCC3C(C)(C)CCCC34COC2C14 (centres undefined) [CP203] gave Potency 19.01 µM (inhibitor, single point).
Cc1cc(O)c2c(c1)OC1(C)CCC3C(C)(C)CCCC34COC2C14 (centres undefined) [3D7] gave Potency 11.22 µM (inhibitor, single point).